Experimental data: PubChem BioAssay AID1508600 (Functional Genomics Laboratory (NCATS/FGL), 2020)
Among all 53,000 sequences or so, about 3,700 (7%) were called active.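 The calls were made as follows: active = gene knockdowns whose robust z-score for IL-1 alpha signal is at least 2 or at most -2, so actives lie on both sides; inactive = the rest.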 The list shows a part of the results.

assay: Components of the Cytosolic LPS Sensing Pathway: Gene Identification via Genome-wide siRNA Screen; conditions: RAW264.7 macrophages, IL-1a HTRF, actives lie on both sides, screened at 100 nM (by protocol), cells primed 5 h with Pam3CSK4 first;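 also: robust z of the log signal after scaling to non-targeting control siRNA wells of the plate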
Method in brief: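 Supernatant IL-1a by HTRF from RAW264.7 cells primed with Pam3CSK4 (5 hours) and transfected with LipidA (24 hour) after 48h siRNA knockdown at 100 nM; cell viability checked with CellTiter-Glo.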

z-score, active:
GGCCUUUGGGACAUGUGUGTT against Olfr552 -2.05

z-score, inactive:
GUUUCUCCAUGGAGUCAUUTT against Psmb5 -0.742
GCCAAUACGACUGAUGAGCTT against Cst10 -0.694
GGGAAGAACUGUGAUUAUUTT against Hspd1 0.625
GCUCACACAGGGAACAUUGTT against Btnl10 -0.00185
GGGCACACAUAUGACCGUUTT against Rrad 0.261
GGGAUAAAACAGGUUCAAGTT against Eri2 -1.43
CCAAGAAAGACCGUGUGAATT against Htt -0.363
GGACAUGAAGACCAAGAUGTT against Cpox -1.57
GUGUUUCUUGUUGUGUACATT against Olfr1013 -0.803
GGAGAAGGAUGGAGUGUUUTT against Brms1l 1.8
GGCUUCUCCAACACUAAGATT against Smtn 0.0761
GGGAUGGAGAAUCAAGAUATT against Tmem117 -1.9
GCAUUGUGCGAUGAGAAGATT against Fam13a -0.388
GGUUCCCAAAGUAGAAGCATT against Dkkl1 -0.231
GGAAUAAUUUCUGGAUUCUTT against Maoa 0.161
GGUAGAAAUCAUUCUCUUUTT against Olfr1037 0.598
GACAACAAGGUGGCUUCGGTT against Tlx2 0.682
CCUUUGUAGGAACAAUUUATT against Phlda1 0.409
GGGCAAAUGACUUGGUGAATT against Maged2 -0.471
GGGAAAUCACUGGACCAGUTT against Zgpat 1.1
GGUGUGCAACCUGUUGCUCTT against Siglec1 0.454
GGAAGCCUAUAAUUUAAUCTT against Ttc26 0.112
CCACCAUGACAAAACGUGUTT against Olfr1459 1.03
GGAGACUUGCUAAAUGCCCTT against Fkbp7 -0.0461
GGAAGUGAACAAAAUGACUTT against Afp 0.288
GGCAUUACAGUGUUUCUGCTT against Tgfbr1 -0.288
GGCAGUACCAGGUCCAGAATT against Angpt2 0.0599
GGCUGAGAAUGCAAGAAUGTT against Krt32 -0.446
GGAGAGUGGGAUGCCUAUUTT against Rsl1 -0.545
